Here are results for 3 molecules from patent US12521402B2, “Biomarker and drug combinations for heart failure prediction” (Endothelium Scanning Nanotechnology Limited, priority 2022, dated 2026).

B1: STAU1 (protein, UniProt O95793 2-577, looked up)
Double-stranded RNA-binding …: SQVQVQVQNPSAALSGSQILNKNQSLLSQPLMSIPSTTSSLPSENAGRPIQNSALPSASITSTSAAAESITPTVELNALCMKLGKKPMYKPVDPYSRMQSTYNYNMRGGAYPPRYFYPFPVPPLLYQVELSVGGQQFNGKGKTRQAAKHDAAAKALRILQNEPLPERLEVNGRESEEENLNKSEISQVFEIALKRNLPVNFEVARESGPPHMKNFVTKVSVGEFVGEGEGKSKKISKKNAAIAVLEELKKLPPLPAVERVKPRIKKKTKPIVKPQTSPEYGQGINPISRLAQIQQAKKEKEPEYTLLTERGLPRRREFVMQVKVGNHTAEGTGTNKKVAKRNAAENMLEILGFKVPQAQPTKPALKSEEKTPIKKPGDGRKVTFFEPGSGDENGTSNKEDEFRMPYLSHQQLPAGILPMVPEVAQAVGVSQGHHTKDFTRAAPNPAKATVTAMIARELLYGGTSPTAETILKNNISSGHVPHGPLTRPSEQLDYLSRVQGFQVEYKDFPKNNKNEFVSLINCSSQPPLISHGIGKDVESCHDMAALNILKLLSELDQQSTEMPRTGNGPMSVCGRC
B2: EFC14 (protein, UniProt O75071 1-495, looked up)
EF-hand calcium-binding …: MKKRKELNALIGLAGDSRRKKPKKGPSSHRLLRTEPPDSDSESSSEEEEEFGVVGNRSRFAKGDYLRCCKICYPLCGFVILAACVVACVGLVWMQVALKEDLDALKEKFRTMESNQKSSFQEIPKLNEELLSKQKQLEKIESGEMGLNKVWINITEMNKQISLLTSAVNHLKANVKSAADLISLPTTVEGLQKSVASIGNTLNSVHLAVEALQKTVDEHKKTMELLQSDMNQHFLKETPGSNQIIPSPSATSELDNKTHSENLKQDILYLHNSLEEVNSALVGYQRQNDLKLEGMNETVSNLTQRVNLIESDVVAMSKVEKKANLSFSMMGDRSATLKRQSLDQVTNRTDTVKIQSIKKEDSSNSQVSKLREKLQLISALTNKPESNRPPETADEEQVESFTSKPSALPKFSQFLGDPVEKAAQLRPISLPGVSSTEDLQDLFRKTGQDVDGKLTYQEIWTSLGSAMPEPESLRAFDSDGDGRYSFLELRVALGI
B3: AMD (protein, UniProt P19021 31-973, looked up)
Peptidyl-glycine …: FKETTRPFSNECLGTTRPVVPIDSSDFALDIRMPGVTPKQSDTYFCMSMRIPVDEEAFVIDFKPRASMDTVHHMLLFGCNMPSSTGSYWFCDEGTCTDKANILYAWARNAPPTRLPKGVGFRVGGETGSKYFVLQVHYGDISAFRDNNKDCSGVSLHLTRLPQPLIAGMYLMMSVDTVIPAGEKVVNSDISCHYKNYPMHVFAYRVHTHHLGKVVSGYRVRNGQWTLIGRQSPQLPQAFYPVGHPVDVSFGDLLAARCVFTGEGRTEATHIGGTSSDEMCNLYIMYYMEAKHAVSFMTCTQNVAPDMFRTIPPEANIPIPVKSDMVMMHEHHKETEYKDKIPLLQQPKREEEEVLDQGDFYSLLSKLLGEREDVVHVHKYNPTEKAESESDLVAEIANVVQKKDLGRSDAREGAEHERGNAILVRDRIHKFHRLVSTLRPPESRVFSLQQPPPGEGTWEPEHTGDFHMEEALDWPGVYLLPGQVSGVALDPKNNLVIFHRGDHVWDGNSFDSKFVYQQIGLGPIEEDTILVIDPNNAAVLQSSGKNLFYLPHGLSIDKDGNYWVTDVALHQVFKLDPNNKEGPVLILGRSMQPGSDQNHFCQPTDVAVDPGTGAIYVSDGYCNSRIVQFSPSGKFITQWGEESSGSSPLPGQFTVPHSLALVPLLGQLCVADRENGRIQCFKTDTKEFVREIKHSSFGRNVFAISYIPGLLFAVNGKPHFGDQEPVQGFVMNFSNGEIIDIFKPVRKHFDMPHDIVASEDGTVYIGDAHTNTVWKFTLTEKLEHRSVKKAGIEVQEIKEAEAVVETKMENKPTSSELQKMQEKQKLIKEPGSGVPVVLITTLLVIPVVVLLAIAIFIRWKKSRAFGDSEHKLETSSGRVLGRFRGKGSGGLNLGNFFASRKGYSRKGFDRLSTEGSDQEKEDDGSESEEEYSAPLPALAPSSS

The nature of the first data set: Saliva proteomics: biomarker quantification by mass spectrometry SWATH in participants at risk of heart failure vs controls. Set-up: species or system human. The following applies: differential expression (fold) control vs 'at risk' group, saliva.
For B1, the “Control vs Risk” value came out at 2.02.

Regarding B2, the “Control vs Risk” value was found to be 2.03.

B3: the “Control vs Risk” value is on record as 2.14.

Still in this data set, the particulars now being: saliva, 'at risk' of heart failure group mean, mass spectrometry SWATH quantification, 20 samples.
In the case of B1, the AtRisk average is 25,481 ng/ml.

In the case of B2, the AtRisk average was 46,304 ng/ml.

Consider B3, for which the AtRisk average is 618,430 ng/ml.

Staying with this data set, now noted: saliva, control group mean, mass spectrometry SWATH quantification, 20 samples.
Regarding B1, the Control average is listed as 51,349 ng/ml.

For B2, the Control average is given as 22,803 ng/ml.

Consider B3, for which the Control average was 1,321,341 ng/ml.
